Reference: PubChem BioAssay AID1508597 (Cure First, 2020)
Shown is an unselected part of the about 2,100 reagents, under one of the conditions tested. 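Calls flag viability under 80% in either arm, not effects specific to rucaparib; the reference for percent is not stated.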 Not given: the 100% reference.

Purpose: 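Survival screen with siRNA in ovarian cancer cells derived from patients, with or without rucaparib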 (primary screen)
Cell system: human ovarian carcinoma lines grown from tumours: OCI-P5x (papillary serous) and OCI-C5x (clear cell)
Knock-down reagent: siRNA pool against human genes, 1.25 pmol siRNA per well
Duration: 72 h or 96 h, depending on the cell culture
Challenge: rucaparib 20 µM (about IC30) or vehicle, present until read-out
Rucaparib or vehicle: Rucaparib
Cell line: OCI-P5x (serous)
Measured: 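ATP luminescence measured at 72 or 96 h according to the culture, then normalised and expressed as percent viability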
Direction: viability, normalised: higher = more viable cells remaining
Active means: 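Active when normalised viability falls below 80 percent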
Calls: active = viability under 80%; inactive = viability 80% or more

| Target gene | technical replicate | viability, normalised (%) | outcome |
| --- | --- | --- | --- |
| S100A6 | 1 | 40.4 | active |
| S100A6 | 2 | 46 | active |
| S100A6 | 3 | 49.6 | active |
| UTP3 | 1 | 100 | inactive |
| UTP3 | 2 | 81.4 | inactive |
| UTP3 | 3 | 86.5 | inactive |
| EPHB6 | 1 | 101 | inactive |
| EPHB6 | 2 | 81.7 | inactive |
| EPHB6 | 3 | 96.5 | inactive |
| H2AC4 | 1 | 103 | inactive |
| H2AC4 | 2 | 85.1 | inactive |
| H2AC4 | 3 | 95.8 | inactive |
| KIF4A | 1 | 98.3 | inactive |
| KIF4A | 2 | 106 | inactive |
| KIF4A | 3 | 91.5 | inactive |
| PDE1A | 1 | 55.8 | active |
| PDE1A | 2 | 77.2 | active |
| PDE1A | 3 | 64.3 | active |
| KALRN | 1 | 133 | inactive |
| KALRN | 2 | 121 | inactive |
| KALRN | 3 | 124 | inactive |
| PTP4A2 | 1 | 76 | active |
| PTP4A2 | 2 | 78.9 | active |
| PTP4A2 | 3 | 86.4 | inactive |
| MAP3K14 | 1 | 63.1 | active |
| MAP3K14 | 2 | 64.3 | active |
| MAP3K14 | 3 | 49.8 | active |
| JMJD4 | 1 | 65.6 | active |
| JMJD4 | 2 | 51 | active |
| JMJD4 | 3 | 59.4 | active |
| MOS | 1 | 89.3 | inactive |
| MOS | 2 | 82 | inactive |
| MOS | 3 | 86.4 | inactive |
| CLDN23 | 1 | 64.3 | active |
| CLDN23 | 2 | 70.7 | active |
| CLDN23 | 3 | 62.6 | active |
| PRDM12 | 1 | 42.7 | active |
| PRDM12 | 2 | 55.1 | active |
| PRDM12 | 3 | 59.7 | active |
| TFAP2A | 1 | 69.2 | active |
| TFAP2A | 2 | 73.2 | active |
| TFAP2A | 3 | 92.8 | inactive |
| PRKCD | 1 | 70 | active |
| PRKCD | 2 | 56.7 | active |
| PRKCD | 3 | 54.1 | active |
| ZZZ3 | 1 | 65.1 | active |
| ZZZ3 | 3 | 49.7 | active |
| MSH3 | 1 | 92.2 | inactive |
| MSH3 | 2 | 84.7 | inactive |
| MSH3 | 3 | 101 | inactive |
| ASXL2 | 1 | 76.3 | active |
| ASXL2 | 2 | 73.5 | active |
| ASXL2 | 3 | 68.4 | active |
| PRKAR1B | 1 | 107 | inactive |
| PRKAR1B | 2 | 129 | inactive |
| PRKAR1B | 3 | 129 | inactive |
| ESR1 | 1 | 44.9 | active |
| ESR1 | 2 | 61.5 | active |
| ESR1 | 3 | 54.4 | active |
| HDAC7 | 1 | 74.6 | active |
| HDAC7 | 2 | 79.3 | active |
| HDAC7 | 3 | 63.3 | active |
| DNMT1 | 1 | 80.4 | inactive |
| DNMT1 | 2 | 78.1 | active |
| DNMT1 | 3 | 70.2 | active |
| RPS6KA4 | 1 | 65 | active |
| RPS6KA4 | 2 | 78.2 | active |
| RPS6KA4 | 3 | 71.5 | active |
| HMGN3 | 1 | 64.7 | active |
| HMGN3 | 2 | 60.7 | active |
| HMGN3 | 3 | 58.9 | active |
| PRDM8 | 1 | 41.2 | active |
| PRDM8 | 2 | 47.5 | active |
| PRDM8 | 3 | 47 | active |
